Source: patent US8993595B2, “Macrocyclic serine protease inhibitors” (priority 2009, dated 2015)
For at least one compound, name, drawing or mass did not settle the structure.

System: nine other cellular proteases
Assay: Selectivity against other cellular proteases
Format: biochemical
Conditions: read-out: IC50 range

Q: For `COc1ccc2c(O[C@H]3CCN4C(=O)N(C)CCCC/C=C\[C@@H]5C[C@@]5(C(=O)NS(=O)(=O)C5(C)CC5)NC(=O)[C@@H]4C3)cc(-c3nc(C(F)(F)F)cs3)nc2c1C` [Compound 52, 1-methyl-cyclopropanesulfonic acid{(Z)-(1S,4R,6S,18S)-18-[7-methoxy-8-methyl-2-(4-trifluoromethyl-thiazol-2-yl)-quinolin-4-yloxy]-13-methyl-2,14-dioxo-3,13,15-triaza-tricyclo[13.4.0.0*4,6*]nonadec-7-ene-4-carbonyl}amide], which IC50 is on record?
A: > 10 mM
